{"source": "the supplement of paper PMC8728848", "binders": {"B1": {"name": "DCIR1 (Mus musculus), Q9QZ15 (protein)", "chain": "MASEITYAEVKFKNESNSLHTYSESPAAPREKPIRDLRKPGSPSLLLTSLMLLLLLLAITFLVAFIIYFQKYSQLLEEKKAAKNIMHNELNCTKSVSPMEDKVWSCCPKDWRLFGSHCYLVPTVSSSASWNKSEENCSRMGAHLVVIQSQEEQDFITGILDTHAAYFIGLWDTGHRQWQWVDQTPYEESITFWHNGEPSSGNEKCATIIYRWKTGWGWNDISCSLKQKSVCQMKKINL"}}, "experiment_in_all_cases": "glycan array binding signal (z-score within array); higher = stronger binding", "settings_in_all_cases": "glycan notation: IUPAC condensed, linker removed", "key": {"[1]": {"target": "Gal3S(b1-3)[Fuc(a1-4)]GlcNAc", "how_it_was_run": "(§1)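 Arrays were curated from the Consortium for Functional Glycomics database, 3228 in total, and kept only where the protein sequence was available. Binding is expressed as a within-array Z-score. This score was averaged across arrays of the same protein sequence at different concentrations or buffers and across linkers, and negative values can be read as non-binding.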"}, "Gal3S(b1-4)Glc": {"target": "Gal3S(b1-4)Glc", "how_it_was_run": "as §1"}, "Gal3S(b1-4)Glc6S": {"target": "Gal3S(b1-4)Glc6S", "how_it_was_run": "as §1"}, "Gal3S(b1-4)GlcNAc": {"target": "Gal3S(b1-4)GlcNAc", "how_it_was_run": "as §1"}, "[2]": {"target": "Gal3S(b1-4)[Fuc(a1-3)]Glc6S", "how_it_was_run": "as §1"}, "[3]": {"target": "Gal3S(b1-4)[Fuc(a1-3)]GlcNAc", "how_it_was_run": "as §1"}, "[4]": {"target": "Gal3S(b1-4)[Fuc(a1-3)]GlcNAc6S", "how_it_was_run": "as §1"}, "Gal3S4S(b1-4)GlcNAc": {"target": "Gal3S4S(b1-4)GlcNAc", "how_it_was_run": "as §1"}, "Gal3S6S(b1-4)GlcNAc": {"target": "Gal3S6S(b1-4)GlcNAc", "how_it_was_run": "as §1"}, "Gal3S6S(b1-4)GlcNAc6S": {"target": "Gal3S6S(b1-4)GlcNAc6S", "how_it_was_run": "as §1"}, "Gal4S(b1-4)GlcNAc": {"target": "Gal4S(b1-4)GlcNAc", "how_it_was_run": "as §1"}, "Gal4S6S(b1-4)GlcNAc": {"target": "Gal4S6S(b1-4)GlcNAc", "how_it_was_run": "as §1"}, "Gal6P(b1-4)GlcNAc": {"target": "Gal6P(b1-4)GlcNAc", "how_it_was_run": "as §1"}, "Gal6S(b1-3)GlcNAc": {"target": "Gal6S(b1-3)GlcNAc", "how_it_was_run": "as §1"}, "Gal6S(b1-3)GlcNAc6S": {"target": "Gal6S(b1-3)GlcNAc6S", "how_it_was_run": "as §1"}, "Gal6S(b1-4)Glc": {"target": "Gal6S(b1-4)Glc", "how_it_was_run": "as §1"}, "Gal6S(b1-4)Glc6S": {"target": "Gal6S(b1-4)Glc6S", "how_it_was_run": "as §1"}, "Gal6S(b1-4)GlcNAc": {"target": "Gal6S(b1-4)GlcNAc", "how_it_was_run": "as §1"}, "Gal6S(b1-4)GlcNAc6S": {"target": "Gal6S(b1-4)GlcNAc6S", "how_it_was_run": "as §1"}, "GalNAc(a1-3)Gal": {"target": "GalNAc(a1-3)Gal", "how_it_was_run": "as §1"}, "GalNAc(a1-3)GalNAc": {"target": "GalNAc(a1-3)GalNAc", "how_it_was_run": "as §1"}, "[5]": {"target": "GalNAc(a1-3)GalNAc(b1-3)Gal(a1-4)Gal(b1-4)Glc", "how_it_was_run": "as §1"}, "[6]": {"target": "GalNAc(a1-3)GalNAc(b1-3)Gal(a1-4)Gal(b1-4)GlcNAc", "how_it_was_run": "as §1"}, "GalNAc(b1-3)Gal": {"target": "GalNAc(b1-3)Gal", "how_it_was_run": "as §1"}, "[7]": {"target": "GalNAc(b1-3)Gal(a1-4)Gal(b1-4)GlcNAc", "how_it_was_run": "as §1"}, "[8]": {"target": "GalNAc(b1-3)Gal(a1-4)Gal(b1-4)GlcNAc(b1-3)Gal(b1-4)Glc", "how_it_was_run": "as §1"}, "[9]": {"target": "GalNAc(b1-3)Gal(a1-6)Gal(b1-4)Glc", "how_it_was_run": "as §1"}, "GalNAc(b1-3)GalNAc": {"target": "GalNAc(b1-3)GalNAc", "how_it_was_run": "as §1"}, "GalNAc(b1-3)GlcNAc": {"target": "GalNAc(b1-3)GlcNAc", "how_it_was_run": "as §1"}, "GalNAc(b1-4)Gal(b1-4)Glc": {"target": "GalNAc(b1-4)Gal(b1-4)Glc", "how_it_was_run": "as §1"}, "GalNAc(b1-4)GlcNAc": {"target": "GalNAc(b1-4)GlcNAc", "how_it_was_run": "as §1"}, "[10]": {"target": "GalNAc(b1-4)GlcNAc(b1-2)Man", "how_it_was_run": "as §1"}, "[11]": {"target": "GalNAc(b1-4)GlcNAc(b1-2)Man(a1-3)[GalNAc(b1-4)GlcNAc(b1-2)Man(a1-6)]Man(b1-4)GlcNAc(b1-4)GlcNAc", "how_it_was_run": "as §1"}, "[12]": {"target": "GalNAc(b1-4)GlcNAc(b1-3)GalNAc(b1-4)GlcNAc", "how_it_was_run": "as §1"}, "GalNAc(b1-4)GlcNAc6S": {"target": "GalNAc(b1-4)GlcNAc6S", "how_it_was_run": "as §1"}, "GalNAc(b1-6)GalNAc": {"target": "GalNAc(b1-6)GalNAc", "how_it_was_run": "as §1"}, "GalNAc3S(b1-4)GlcNAc": {"target": "GalNAc3S(b1-4)GlcNAc", "how_it_was_run": "as §1"}, "GalNAc3S(b1-4)GlcNAc3S": {"target": "GalNAc3S(b1-4)GlcNAc3S", "how_it_was_run": "as §1"}, "[13]": {"target": "GalNAc3S(b1-4)[Fuc(a1-3)]GlcNAc", "how_it_was_run": "as §1"}, "GalNAc4S6S(b1-4)GlcNAc": {"target": "GalNAc4S6S(b1-4)GlcNAc", "how_it_was_run": "as §1"}, "GalNAc6S(b1-4)GlcNAc": {"target": "GalNAc6S(b1-4)GlcNAc", "how_it_was_run": "as §1"}, "Glc(a1-4)Glc": {"target": "Glc(a1-4)Glc", "how_it_was_run": "as §1"}, "[14]": {"target": "Glc(a1-4)Glc(a1-4)Glc(a1-4)Glc", "how_it_was_run": "as §1"}, "Glc(a1-6)Glc(a1-6)Glc": {"target": "Glc(a1-6)Glc(a1-6)Glc", "how_it_was_run": "as §1"}, "[15]": {"target": "Glc(a1-6)Glc(a1-6)Glc(a1-6)Glc", "how_it_was_run": "as §1"}}, "note": "The list shows a part of the results.", "data": [{"binder": "B1", "values": [{"measurement": "glycan array binding signal (z-score)", "setting": "[1]", "result": -0.369}, {"measurement": "glycan array binding signal (z-score)", "setting": "Gal3S(b1-4)Glc", "result": 1.19}, {"measurement": "glycan array binding signal (z-score)", "setting": "Gal3S(b1-4)Glc6S", "result": 1.04}, {"measurement": "glycan array binding signal (z-score)", "setting": "Gal3S(b1-4)GlcNAc", "result": -0.589}, {"measurement": "glycan array binding signal (z-score)", "setting": "[2]", "result": 0.117}, {"measurement": "glycan array binding signal (z-score)", "setting": "[3]", "result": -0.699}, {"measurement": "glycan array binding signal (z-score)", "setting": "[4]", "result": 0.98}, {"measurement": "glycan array binding signal (z-score)", "setting": "Gal3S4S(b1-4)GlcNAc", "result": -0.376}, {"measurement": "glycan array binding signal (z-score)", "setting": "Gal3S6S(b1-4)GlcNAc", "result": 0.218}, {"measurement": "glycan array binding signal (z-score)", "setting": "Gal3S6S(b1-4)GlcNAc6S", "result": 0.649}, {"measurement": "glycan array binding signal (z-score)", "setting": "Gal4S(b1-4)GlcNAc", "result": -0.286}, {"measurement": "glycan array binding signal (z-score)", "setting": "Gal4S6S(b1-4)GlcNAc", "result": 0.062}, {"measurement": "glycan array binding signal (z-score)", "setting": "Gal6P(b1-4)GlcNAc", "result": -0.489}, {"measurement": "glycan array binding signal (z-score)", "setting": "Gal6S(b1-3)GlcNAc", "result": -0.787}, {"measurement": "glycan array binding signal (z-score)", "setting": "Gal6S(b1-3)GlcNAc6S", "result": 0.954}, {"measurement": "glycan array binding signal (z-score)", "setting": "Gal6S(b1-4)Glc", "result": -0.115}, {"measurement": "glycan array binding signal (z-score)", "setting": "Gal6S(b1-4)Glc6S", "result": 0.927}, {"measurement": "glycan array binding signal (z-score)", "setting": "Gal6S(b1-4)GlcNAc", "result": -0.003}, {"measurement": "glycan array binding signal (z-score)", "setting": "Gal6S(b1-4)GlcNAc6S", "result": -0.128}, {"measurement": "glycan array binding signal (z-score)", "setting": "GalNAc(a1-3)Gal", "result": 0.51}, {"measurement": "glycan array binding signal (z-score)", "setting": "GalNAc(a1-3)GalNAc", "result": -0.78}, {"measurement": "glycan array binding signal (z-score)", "setting": "[5]", "result": -0.298}, {"measurement": "glycan array binding signal (z-score)", "setting": "[6]", "result": 2.31}, {"measurement": "glycan array binding signal (z-score)", "setting": "GalNAc(b1-3)Gal", "result": 0.474}, {"measurement": "glycan array binding signal (z-score)", "setting": "[7]", "result": 0.261}, {"measurement": "glycan array binding signal (z-score)", "setting": "[8]", "result": 0.98}, {"measurement": "glycan array binding signal (z-score)", "setting": "[9]", "result": -0.546}, {"measurement": "glycan array binding signal (z-score)", "setting": "GalNAc(b1-3)GalNAc", "result": -0.661}, {"measurement": "glycan array binding signal (z-score)", "setting": "GalNAc(b1-3)GlcNAc", "result": -0.653}, {"measurement": "glycan array binding signal (z-score)", "setting": "GalNAc(b1-4)Gal(b1-4)Glc", "result": 1.34}, {"measurement": "glycan array binding signal (z-score)", "setting": "GalNAc(b1-4)GlcNAc", "result": 1.05}, {"measurement": "glycan array binding signal (z-score)", "setting": "[10]", "result": -0.317}, {"measurement": "glycan array binding signal (z-score)", "setting": "[11]", "result": 1.72}, {"measurement": "glycan array binding signal (z-score)", "setting": "[12]", "result": -0.611}, {"measurement": "glycan array binding signal (z-score)", "setting": "GalNAc(b1-4)GlcNAc6S", "result": 0.095}, {"measurement": "glycan array binding signal (z-score)", "setting": "GalNAc(b1-6)GalNAc", "result": -0.978}, {"measurement": "glycan array binding signal (z-score)", "setting": "GalNAc3S(b1-4)GlcNAc", "result": -1}, {"measurement": "glycan array binding signal (z-score)", "setting": "GalNAc3S(b1-4)GlcNAc3S", "result": -1.09}, {"measurement": "glycan array binding signal (z-score)", "setting": "[13]", "result": -0.573}, {"measurement": "glycan array binding signal (z-score)", "setting": "GalNAc4S6S(b1-4)GlcNAc", "result": -0.77}, {"measurement": "glycan array binding signal (z-score)", "setting": "GalNAc6S(b1-4)GlcNAc", "result": -0.83}, {"measurement": "glycan array binding signal (z-score)", "setting": "Glc(a1-4)Glc", "result": -0.145}, {"measurement": "glycan array binding signal (z-score)", "setting": "[14]", "result": 0.649}, {"measurement": "glycan array binding signal (z-score)", "setting": "Glc(a1-6)Glc(a1-6)Glc", "result": -0.606}, {"measurement": "glycan array binding signal (z-score)", "setting": "[15]", "result": 1.61}]}]}
